Reference: PubChem BioAssay AID686938 (Drosophila RNAi Screening Center, 2013)
The screen tested about 23,000 reagents; shown is an unselected part of those with a known target gene and a result. Over the whole deposit, 75 (0.33%) are marked active. 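Raw plate signals without normalisation; calls rest on plate z-scores that were not deposited; ratio present for only 364 wells.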 Entries without a mark were called inactive. The numbers tell different reagents against one gene apart. The record does not give: the dose of the treatment.

Screen: 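Fly genes required for calcium entry once internal stores are emptied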 (primary screen)
Cells: Drosophila S2R+ cells
Reagents: long dsRNA against Drosophila genes, about 0.25 µg dsRNA per well, roughly 10,000 cells
Timing: 5 days of knock-down before the calcium assay
Challenge: thapsigargin (SERCA pump blocker) to empty calcium stores; entry signal taken 4 min after adding it
Read-out: 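Per-well fluo-4 fluorescence in two replicates, unnormalised, measured in resting cells and 4 min after store depletion by the SERCA blocker thapsigargin; ratio of the two present in few wells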
Direction: calcium entry signal: higher = stronger calcium signal after store depletion; resting calcium signal: higher = higher resting calcium signal
Call rule: 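Called when the plate z-score of the entry-to-rest ratio, mean of duplicates, falls below −3; wells with low overall dye signal (Fmax z below −2) or more than five off-targets excluded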
Calls: active = strongly reduced calcium entry; inactive = no strong reduction

no.	gene	reagent no.	calcium entry signal, replicate 1 (fluorescence units)	calcium entry signal, replicate 2 (fluorescence units)	resting calcium signal, replicate 1 (fluorescence units)	resting calcium signal, replicate 2 (fluorescence units)
1	Timp (Tissue inhibitor of metalloproteases)	1	3.99e7	4.81e7	1.76e7	2.11e7
2	Mlc1 (Myosin alkali light chain 1)	1	2.23e7	3.37e7	1.22e7	1.65e7
3	RpL13 (Ribosomal protein L13)	1	1.12e7	1.72e7	8.16e6	1.12e7
4	CG34327	1	3.30e7	3.21e7	1.66e7	1.61e7
5	CG34327	2	3.05e7	4.09e7	1.51e7	2.27e7
6	CG16713	1	3.66e7	3.36e7	1.65e7	1.66e7
7	CG34408	1	4.03e7	4.18e7	1.98e7	2.02e7
8	CG34408	2	3.89e7	6.83e7	1.91e7	3.56e7
9	CG34408	3	3.55e7	3.19e7	2.06e7	1.56e7
10	Tektin-A (Tektin A)	1	4.56e7		2.31e7	
11	Ect3 (Ectoderm-expressed 3)	1	3.80e7	3.24e7	1.76e7	1.67e7
12	CG18223	1	1.84e7	3.23e7	1.01e7	1.53e7
13	LpR2 (Lipophorin receptor 2)	1	3.37e7	3.82e7	1.59e7	1.99e7
14	LpR2 (Lipophorin receptor 2)	2	3.10e7	4.25e7	1.50e7	1.96e7
15	LpR2 (Lipophorin receptor 2)	3	2.96e7	3.66e7	1.36e7	1.86e7
16	LpR2 (Lipophorin receptor 2)	4	4.12e7	4.91e7	1.95e7	2.13e7
17	CG13040	1	3.11e7	3.60e7	1.47e7	1.45e7
18	D19B	1	3.19e7	5.61e7	1.52e7	2.42e7
19	Sting	1	3.54e7	3.24e7	1.71e7	1.37e7
20	Rrp5 (Ribosomal RNA Processing 5)	1	3.69e7	2.51e7	1.89e7	1.36e7
21	Gbeta13F (G protein beta subunit 13F)	1	4.00e7	4.61e7	1.99e7	2.11e7
22	CG17110	1	4.89e7	5.44e7	2.50e7	2.27e7
23	dpr9 (defective proboscis extension response 9)	1	4.00e7	4.55e7	1.67e7	1.93e7
24	dpr9 (defective proboscis extension response 9)	2	3.74e7	5.33e7	1.84e7	6.83e7
25	dpr9 (defective proboscis extension response 9)	3	2.63e7	5.02e7	1.47e7	6.88e7
26	CG3955	1	3.99e7	3.27e7	1.96e7	1.78e7
27	CG9344	1	3.96e7	4.78e7	2.04e7	2.00e7
28	Sr-CII (Scavenger receptor class C, type II)	1	2.60e7	4.12e7	1.38e7	1.78e7
29	Acp53Ea (Accessory gland protein 53Ea)	1	4.02e7	4.43e7	1.83e7	2.22e7
30	ppk14 (pickpocket 14)	1	3.74e7	3.47e7	2.04e7	1.66e7
31	Strip (Striatin interacting protein)	1	2.78e7	2.17e7	2.28e7	9.89e6
32	Hmx (H6-like-homeobox)	1	3.29e7	7.57e7	1.75e7	3.51e7
33	Hmx (H6-like-homeobox)	2	4.09e7	5.03e7	1.95e7	7.56e7
34	Hmx (H6-like-homeobox)	3	2.88e7	6.53e7	1.63e7	5.72e7
35	Hmx (H6-like-homeobox)	4	3.33e7	5.06e7	1.60e7	2.27e7
36	Hap40 (Huntingtin-associated protein 40 kDa)	1	3.68e7	3.82e7	1.70e7	1.87e7
37	mago (mago nashi)	1	6.01e7	5.37e7	2.42e7	2.11e7
38	CG12362	1	1.45e7	2.32e7	8.64e6	1.14e7
39	mus101 (mutagen-sensitive 101)	1	4.62e7	2.79e7	2.16e7	1.52e7

Look-ups from the list.
Hap40 (Huntingtin-associated protein 40 kDa), resting calcium signal, replicate 2 (fluorescence units) = 1.87e7
Value of CG34327 #2 under “resting calcium signal, replicate 1 (fluorescence units)”: 1.51e7
CG9344, calcium entry signal, replicate 2 (fluorescence units): 4.78e7
Under “resting calcium signal, replicate 1 (fluorescence units)”, LpR2 (Lipophorin receptor 2) #2 has 1.50e7

The listing continues.
no.	gene	reagent no.	calcium entry signal, replicate 1 (fluorescence units)	calcium entry signal, replicate 2 (fluorescence units)	resting calcium signal, replicate 1 (fluorescence units)	resting calcium signal, replicate 2 (fluorescence units)
40	SuUR (Suppressor of Under-Replication)	1	3.07e7	4.13e7	1.48e7	1.83e7
41	Pgant5 (Polypeptide N-Acetylgalactosaminyltransferase 5)	1	4.29e7		2.07e7	
42	thoc7	1	4.35e7	3.66e7	1.92e7	1.80e7
43	CG42355	1	2.89e7	2.87e7	1.58e7	1.42e7
44	mRNA-cap (mRNA-capping-enzyme)	1	1.94e7	1.82e7	1.34e7	1.13e7
45	CngA (Cyclic nucleotide-gated ion channel subunit A)	1	4.67e7	4.79e7	2.23e7	2.20e7
46	CngA (Cyclic nucleotide-gated ion channel subunit A)	2	4.49e7	5.10e7	1.85e7	2.35e7
47	CG8519	1	3.34e7	5.20e7	1.60e7	2.31e7
48	Remo (Remoulade)	1	4.61e7	4.34e7	2.11e7	1.77e7
49	CG15233	1	3.84e7		1.85e7	
50	CG15201	1	3.64e7	4.58e7	1.77e7	2.21e7
51	CG6142	1	3.07e7	4.70e7	1.84e7	1.93e7
52	CG32633	1	1.69e7	2.53e7	9.21e6	1.09e7
53	Gr94a (Gustatory receptor 94a)	1	3.19e7	3.09e7	1.72e7	1.62e7
54	CG32373	1	4.18e7	4.36e7	2.18e7	2.06e7
55	CG17193	1	2.08e7	3.11e7	2.96e7	1.33e7
56	CG13563	1	3.43e7	6.49e7	1.66e7	2.88e7
57	CG16743	1	4.37e7	5.04e7	2.06e7	2.40e7
58	CG10352	1	2.99e7	3.62e7	1.57e7	1.64e7
59	sdt (stardust)	1	4.38e7	3.81e7	2.24e7	1.89e7
60	sdt (stardust)	2	4.20e7	3.33e7	2.00e7	1.64e7
61	sdt (stardust)	3	3.14e7	4.10e7	1.67e7	1.86e7
62	sdt (stardust)	4	2.87e7	3.96e7	1.39e7	1.89e7
63	sdt (stardust)	5	3.08e7	4.45e7	1.57e7	2.13e7
64	sdt (stardust)	6	2.52e7	2.85e7	1.30e7	1.64e7
65	sdt (stardust)	7	1.81e7	2.63e7	1.16e7	1.47e7
66	sdt (stardust)	8	3.46e7	3.38e7	1.86e7	1.74e7
67	sdt (stardust)	9	3.67e7	3.24e7	1.70e7	1.42e7
68	GstD6 (Glutathione S transferase D6)	1	2.99e7	2.83e7	1.51e7	1.57e7
69	CG15213	1	3.43e7	4.78e7	1.70e7	2.03e7
70	CR43999 (retired record)	1	4.95e7	4.75e7	2.20e7	2.14e7
71	skd (skuld)	1	2.75e7	4.11e7	1.49e7	1.86e7
72	schuy (schumacher-levy)	1	3.22e7	5.44e7	1.50e7	2.13e7
73	Hsp60A (Heat shock protein 60A)	1	1.89e7	2.27e7	9.69e6	1.10e7
74	ple (pale)	1	3.38e7	5.27e7	1.80e7	2.42e7
75	Tsp26A (Tetraspanin 26A)	1	4.03e7	4.59e7	1.83e7	1.91e7
